Experimental data: publication doi:10.1101/2022.09.01.506260
No constants are given. Whether binding was seen depends on the method and setting. For some assays here: In cells and extracts the contact can be indirect. Some entries that bind do so weakly or less than the wild type. For some assays here: Tags and fused reporters may be left off the sequences shown.

Chains of the proteins cited; added tags and fusions are not shown. Lines headed by an entry give the natural chain unless they say otherwise; changes in a name come on top.
UniProt P46108, whole entry: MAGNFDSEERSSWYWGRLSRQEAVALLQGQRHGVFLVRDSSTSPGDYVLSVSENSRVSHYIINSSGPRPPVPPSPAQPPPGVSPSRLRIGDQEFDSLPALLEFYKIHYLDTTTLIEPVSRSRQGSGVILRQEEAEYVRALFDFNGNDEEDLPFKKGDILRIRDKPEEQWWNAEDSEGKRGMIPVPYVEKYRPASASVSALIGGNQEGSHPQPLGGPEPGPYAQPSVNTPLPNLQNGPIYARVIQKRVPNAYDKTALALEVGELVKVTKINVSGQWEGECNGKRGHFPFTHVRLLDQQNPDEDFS

Assays:
[1] = biological target: T1, HA-tagged PEAK3^FL-S69A mutant (human) (UniProt Q6ZS72); experiment: co-IP
T1 sequence: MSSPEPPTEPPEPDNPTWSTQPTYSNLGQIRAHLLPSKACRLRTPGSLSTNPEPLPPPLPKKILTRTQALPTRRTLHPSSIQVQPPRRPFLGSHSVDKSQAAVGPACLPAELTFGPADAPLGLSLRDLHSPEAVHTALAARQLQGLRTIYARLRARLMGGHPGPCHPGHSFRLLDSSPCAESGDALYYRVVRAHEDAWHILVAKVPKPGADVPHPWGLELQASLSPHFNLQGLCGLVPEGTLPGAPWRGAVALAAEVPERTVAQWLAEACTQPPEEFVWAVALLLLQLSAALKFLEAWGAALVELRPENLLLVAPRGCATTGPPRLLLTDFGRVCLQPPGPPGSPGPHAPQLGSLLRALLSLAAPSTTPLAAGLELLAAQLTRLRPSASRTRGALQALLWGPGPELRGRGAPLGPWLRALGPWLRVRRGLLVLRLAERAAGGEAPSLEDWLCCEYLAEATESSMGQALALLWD

[2] = biological target: T2, PEAK1^IDR1 (N-terminally truncated PEAK1, residues 1082-1746) (human) (UniProt Q9H792); experiment: SEC
T2 sequence: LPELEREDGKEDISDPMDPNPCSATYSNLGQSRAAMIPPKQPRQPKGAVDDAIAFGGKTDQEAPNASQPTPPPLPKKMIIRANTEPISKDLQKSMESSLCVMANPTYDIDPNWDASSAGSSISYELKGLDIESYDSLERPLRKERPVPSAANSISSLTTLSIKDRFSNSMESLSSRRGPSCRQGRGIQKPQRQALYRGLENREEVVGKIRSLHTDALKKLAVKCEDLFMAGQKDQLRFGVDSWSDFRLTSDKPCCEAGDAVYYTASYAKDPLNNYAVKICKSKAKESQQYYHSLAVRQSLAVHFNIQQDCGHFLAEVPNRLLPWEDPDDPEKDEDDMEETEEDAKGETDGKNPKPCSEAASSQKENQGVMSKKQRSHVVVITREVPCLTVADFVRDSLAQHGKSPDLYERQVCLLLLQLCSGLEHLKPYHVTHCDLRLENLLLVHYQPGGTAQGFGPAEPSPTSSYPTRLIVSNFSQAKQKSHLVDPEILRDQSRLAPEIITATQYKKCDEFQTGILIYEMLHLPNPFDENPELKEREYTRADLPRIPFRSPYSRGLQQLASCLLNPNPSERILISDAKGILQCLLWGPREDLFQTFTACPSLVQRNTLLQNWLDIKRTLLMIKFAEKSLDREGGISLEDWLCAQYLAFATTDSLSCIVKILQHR

Substance | binding [1] | binding [2]
endogenous CrkII (HEK293) (from UniProt P46108-1 1-304) | binds | 
full length CrkII, dimer (CrkII^FL dimer) (from UniProt P46108-1 1-304) |  | binds
